Results as given in the supplement of paper PMC12067093, “Discovery and optimisation of a covalent ligand for TRIM25 and its application to targeted protein ubiquitination” (Chemical Science, 2025).
Some of the results follow.

The chains behind the UniProt entries cited, without tags or fusion partners. Where a name states a change or a piece, a line headed by the entry shows the natural chain unless it says otherwise.
UniProt Q9H074: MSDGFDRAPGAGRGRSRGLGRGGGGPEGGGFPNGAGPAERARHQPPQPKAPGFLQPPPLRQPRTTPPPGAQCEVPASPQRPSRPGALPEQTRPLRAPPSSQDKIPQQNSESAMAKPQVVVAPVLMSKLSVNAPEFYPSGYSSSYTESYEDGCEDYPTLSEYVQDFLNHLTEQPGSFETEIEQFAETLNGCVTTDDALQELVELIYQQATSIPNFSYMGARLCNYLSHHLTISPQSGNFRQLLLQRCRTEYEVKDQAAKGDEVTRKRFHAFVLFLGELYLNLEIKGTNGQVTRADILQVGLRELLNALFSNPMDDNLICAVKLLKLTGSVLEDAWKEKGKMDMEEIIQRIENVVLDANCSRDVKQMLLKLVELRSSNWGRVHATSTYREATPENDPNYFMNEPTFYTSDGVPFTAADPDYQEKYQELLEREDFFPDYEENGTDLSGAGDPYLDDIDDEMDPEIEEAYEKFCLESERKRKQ
UniProt Q9NRP0: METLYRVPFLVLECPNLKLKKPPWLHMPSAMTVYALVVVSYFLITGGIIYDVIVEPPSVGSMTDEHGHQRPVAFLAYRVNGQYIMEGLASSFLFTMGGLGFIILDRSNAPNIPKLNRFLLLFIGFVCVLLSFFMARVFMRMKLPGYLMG
UniProt Q9H4B0: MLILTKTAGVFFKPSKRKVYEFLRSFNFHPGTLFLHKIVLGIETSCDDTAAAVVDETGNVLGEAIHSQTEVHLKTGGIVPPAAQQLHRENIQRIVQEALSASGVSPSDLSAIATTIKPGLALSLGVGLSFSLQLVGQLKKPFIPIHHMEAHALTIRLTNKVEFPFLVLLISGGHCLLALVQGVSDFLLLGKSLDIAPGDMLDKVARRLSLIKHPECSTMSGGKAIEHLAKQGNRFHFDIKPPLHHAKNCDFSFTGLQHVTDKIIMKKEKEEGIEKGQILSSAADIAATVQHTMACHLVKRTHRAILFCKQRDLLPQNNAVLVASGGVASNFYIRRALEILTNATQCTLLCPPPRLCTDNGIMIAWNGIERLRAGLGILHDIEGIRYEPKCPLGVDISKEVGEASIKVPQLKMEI
UniProt Q99571: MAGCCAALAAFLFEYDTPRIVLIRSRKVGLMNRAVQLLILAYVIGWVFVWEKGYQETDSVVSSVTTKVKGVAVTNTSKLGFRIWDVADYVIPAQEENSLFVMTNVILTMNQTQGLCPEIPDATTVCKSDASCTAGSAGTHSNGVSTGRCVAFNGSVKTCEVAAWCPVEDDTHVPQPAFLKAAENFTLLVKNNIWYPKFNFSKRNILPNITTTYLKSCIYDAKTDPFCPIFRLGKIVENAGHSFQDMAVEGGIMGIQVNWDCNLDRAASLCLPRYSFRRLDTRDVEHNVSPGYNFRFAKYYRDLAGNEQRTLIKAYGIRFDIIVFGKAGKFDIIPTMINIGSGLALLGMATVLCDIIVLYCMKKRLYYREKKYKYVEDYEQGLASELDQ
UniProt Q9ULE6: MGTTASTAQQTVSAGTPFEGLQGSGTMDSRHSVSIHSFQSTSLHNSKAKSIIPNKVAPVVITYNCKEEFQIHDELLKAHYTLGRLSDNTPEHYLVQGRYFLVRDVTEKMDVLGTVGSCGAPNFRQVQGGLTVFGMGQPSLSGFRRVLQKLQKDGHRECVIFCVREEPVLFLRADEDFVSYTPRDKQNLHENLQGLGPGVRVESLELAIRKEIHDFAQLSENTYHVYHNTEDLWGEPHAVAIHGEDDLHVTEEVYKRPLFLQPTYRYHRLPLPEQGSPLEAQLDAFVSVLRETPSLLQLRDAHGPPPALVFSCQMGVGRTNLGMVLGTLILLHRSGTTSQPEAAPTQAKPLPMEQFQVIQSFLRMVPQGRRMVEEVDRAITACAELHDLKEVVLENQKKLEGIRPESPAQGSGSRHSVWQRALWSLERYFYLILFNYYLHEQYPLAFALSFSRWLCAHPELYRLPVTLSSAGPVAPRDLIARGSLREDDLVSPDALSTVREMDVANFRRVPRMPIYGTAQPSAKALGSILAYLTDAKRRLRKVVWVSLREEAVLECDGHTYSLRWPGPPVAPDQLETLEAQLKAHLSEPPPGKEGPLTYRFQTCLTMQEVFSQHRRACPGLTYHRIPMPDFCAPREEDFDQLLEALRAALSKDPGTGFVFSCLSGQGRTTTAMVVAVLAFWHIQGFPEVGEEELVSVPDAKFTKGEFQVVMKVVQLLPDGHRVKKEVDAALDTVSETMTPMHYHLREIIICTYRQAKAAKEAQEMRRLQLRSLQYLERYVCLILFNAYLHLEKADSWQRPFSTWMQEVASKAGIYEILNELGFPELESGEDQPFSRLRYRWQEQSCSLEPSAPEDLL
UniProt P43034: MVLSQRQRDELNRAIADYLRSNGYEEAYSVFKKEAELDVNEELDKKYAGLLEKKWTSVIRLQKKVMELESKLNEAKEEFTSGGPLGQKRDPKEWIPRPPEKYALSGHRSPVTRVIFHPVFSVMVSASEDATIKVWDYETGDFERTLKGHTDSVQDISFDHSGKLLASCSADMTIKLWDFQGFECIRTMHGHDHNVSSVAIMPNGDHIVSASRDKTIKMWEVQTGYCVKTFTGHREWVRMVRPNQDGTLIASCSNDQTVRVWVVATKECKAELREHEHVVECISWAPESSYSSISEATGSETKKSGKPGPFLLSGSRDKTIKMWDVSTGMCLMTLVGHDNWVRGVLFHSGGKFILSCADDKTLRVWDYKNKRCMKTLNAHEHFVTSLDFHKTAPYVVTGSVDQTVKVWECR
UniProt O95453: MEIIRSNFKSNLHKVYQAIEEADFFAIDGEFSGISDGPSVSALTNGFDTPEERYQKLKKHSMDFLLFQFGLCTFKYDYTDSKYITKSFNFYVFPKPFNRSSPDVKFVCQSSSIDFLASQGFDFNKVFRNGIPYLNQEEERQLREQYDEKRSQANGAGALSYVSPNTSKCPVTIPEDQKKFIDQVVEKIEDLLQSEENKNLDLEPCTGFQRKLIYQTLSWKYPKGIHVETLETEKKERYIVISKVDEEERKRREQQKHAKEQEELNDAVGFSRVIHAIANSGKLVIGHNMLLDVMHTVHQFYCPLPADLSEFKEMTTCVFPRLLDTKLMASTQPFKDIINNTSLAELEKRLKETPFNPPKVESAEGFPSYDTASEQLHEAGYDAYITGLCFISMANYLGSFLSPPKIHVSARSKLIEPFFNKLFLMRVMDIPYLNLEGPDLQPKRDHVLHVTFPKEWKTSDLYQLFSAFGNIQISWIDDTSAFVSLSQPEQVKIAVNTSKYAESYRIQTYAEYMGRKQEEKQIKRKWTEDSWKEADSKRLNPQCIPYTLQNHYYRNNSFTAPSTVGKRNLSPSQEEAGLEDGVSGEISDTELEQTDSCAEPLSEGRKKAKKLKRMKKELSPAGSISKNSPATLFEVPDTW
UniProt Q9Y2J8, whole entry, looked up: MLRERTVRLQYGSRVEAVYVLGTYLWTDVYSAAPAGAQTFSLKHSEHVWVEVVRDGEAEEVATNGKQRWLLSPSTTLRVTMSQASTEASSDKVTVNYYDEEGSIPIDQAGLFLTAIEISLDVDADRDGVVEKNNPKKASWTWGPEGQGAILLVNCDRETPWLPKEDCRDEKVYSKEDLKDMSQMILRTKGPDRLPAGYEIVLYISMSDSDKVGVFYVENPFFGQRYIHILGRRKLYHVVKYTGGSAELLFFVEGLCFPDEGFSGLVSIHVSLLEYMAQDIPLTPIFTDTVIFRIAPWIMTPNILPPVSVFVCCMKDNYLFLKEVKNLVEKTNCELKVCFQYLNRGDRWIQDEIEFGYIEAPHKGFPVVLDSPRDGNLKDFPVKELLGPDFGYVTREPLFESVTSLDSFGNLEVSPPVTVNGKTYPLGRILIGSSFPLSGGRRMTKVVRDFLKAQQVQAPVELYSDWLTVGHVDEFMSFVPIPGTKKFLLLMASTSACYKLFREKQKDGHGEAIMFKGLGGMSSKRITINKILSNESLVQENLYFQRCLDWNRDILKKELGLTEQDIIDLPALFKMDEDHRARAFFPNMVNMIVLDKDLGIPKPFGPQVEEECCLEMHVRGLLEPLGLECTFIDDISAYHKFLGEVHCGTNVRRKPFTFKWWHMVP
UniProt Q15102: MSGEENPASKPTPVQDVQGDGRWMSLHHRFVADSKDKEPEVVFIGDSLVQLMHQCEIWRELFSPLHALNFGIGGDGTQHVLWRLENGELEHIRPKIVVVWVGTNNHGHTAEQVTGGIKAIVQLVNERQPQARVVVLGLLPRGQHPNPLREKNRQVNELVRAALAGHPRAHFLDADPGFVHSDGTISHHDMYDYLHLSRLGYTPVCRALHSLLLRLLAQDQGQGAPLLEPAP
UniProt Q9UBD5: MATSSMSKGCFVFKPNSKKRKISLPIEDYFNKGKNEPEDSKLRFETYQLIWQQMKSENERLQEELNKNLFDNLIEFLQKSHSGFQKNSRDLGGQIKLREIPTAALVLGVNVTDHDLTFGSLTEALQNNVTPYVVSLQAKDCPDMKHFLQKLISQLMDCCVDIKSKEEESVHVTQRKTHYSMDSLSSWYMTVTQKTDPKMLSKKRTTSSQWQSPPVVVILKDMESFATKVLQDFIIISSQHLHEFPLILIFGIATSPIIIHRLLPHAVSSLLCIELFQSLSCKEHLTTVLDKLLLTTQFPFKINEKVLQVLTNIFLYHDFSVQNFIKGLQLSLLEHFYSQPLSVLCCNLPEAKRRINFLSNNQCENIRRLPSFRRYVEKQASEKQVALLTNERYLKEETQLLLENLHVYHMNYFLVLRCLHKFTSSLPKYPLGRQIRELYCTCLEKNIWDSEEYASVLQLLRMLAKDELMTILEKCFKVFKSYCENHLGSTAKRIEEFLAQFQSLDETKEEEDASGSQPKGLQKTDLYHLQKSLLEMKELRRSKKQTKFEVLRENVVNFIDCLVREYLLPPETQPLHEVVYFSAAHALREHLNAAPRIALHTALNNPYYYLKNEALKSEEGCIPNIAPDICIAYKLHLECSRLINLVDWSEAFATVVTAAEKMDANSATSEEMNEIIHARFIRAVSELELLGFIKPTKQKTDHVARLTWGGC
UniProt O43929: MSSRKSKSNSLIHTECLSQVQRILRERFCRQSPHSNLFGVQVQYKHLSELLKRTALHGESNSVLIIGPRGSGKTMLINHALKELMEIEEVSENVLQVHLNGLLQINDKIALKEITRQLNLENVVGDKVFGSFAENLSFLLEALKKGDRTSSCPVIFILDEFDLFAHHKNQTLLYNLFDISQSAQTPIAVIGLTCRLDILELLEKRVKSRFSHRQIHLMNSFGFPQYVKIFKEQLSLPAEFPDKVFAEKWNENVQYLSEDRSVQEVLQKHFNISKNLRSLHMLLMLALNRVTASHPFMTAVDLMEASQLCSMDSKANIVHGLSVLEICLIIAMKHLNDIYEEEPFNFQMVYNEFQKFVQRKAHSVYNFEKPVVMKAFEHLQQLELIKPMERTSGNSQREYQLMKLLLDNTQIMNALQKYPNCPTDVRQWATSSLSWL
UniProt Q9NPF4: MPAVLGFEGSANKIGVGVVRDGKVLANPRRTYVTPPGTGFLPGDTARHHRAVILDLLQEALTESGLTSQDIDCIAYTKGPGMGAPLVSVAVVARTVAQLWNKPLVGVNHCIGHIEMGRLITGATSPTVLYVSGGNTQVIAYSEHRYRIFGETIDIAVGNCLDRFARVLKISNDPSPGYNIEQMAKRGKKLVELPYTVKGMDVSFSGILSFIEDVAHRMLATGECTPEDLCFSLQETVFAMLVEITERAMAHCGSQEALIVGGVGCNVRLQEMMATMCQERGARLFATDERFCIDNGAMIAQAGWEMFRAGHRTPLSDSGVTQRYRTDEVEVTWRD
UniProt Q9H0J9: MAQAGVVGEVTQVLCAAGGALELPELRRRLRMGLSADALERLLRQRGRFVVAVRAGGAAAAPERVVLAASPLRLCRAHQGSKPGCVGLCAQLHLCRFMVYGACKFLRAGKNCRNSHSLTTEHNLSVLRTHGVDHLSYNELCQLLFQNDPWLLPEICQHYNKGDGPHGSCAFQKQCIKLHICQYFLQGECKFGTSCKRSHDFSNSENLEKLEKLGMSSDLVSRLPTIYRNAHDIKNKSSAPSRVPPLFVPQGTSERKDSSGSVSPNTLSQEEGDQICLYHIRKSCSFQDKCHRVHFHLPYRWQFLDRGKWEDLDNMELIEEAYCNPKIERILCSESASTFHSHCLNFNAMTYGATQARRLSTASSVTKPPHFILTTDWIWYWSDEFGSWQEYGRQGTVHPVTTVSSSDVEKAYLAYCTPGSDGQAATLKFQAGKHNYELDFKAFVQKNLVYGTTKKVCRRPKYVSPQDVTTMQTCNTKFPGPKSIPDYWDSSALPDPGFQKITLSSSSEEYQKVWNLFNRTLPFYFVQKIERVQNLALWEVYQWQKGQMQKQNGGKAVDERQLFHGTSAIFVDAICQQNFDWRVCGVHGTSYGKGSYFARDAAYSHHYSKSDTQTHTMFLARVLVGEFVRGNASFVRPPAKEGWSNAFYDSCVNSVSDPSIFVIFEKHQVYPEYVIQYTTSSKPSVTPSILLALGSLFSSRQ

Compound: Cc1cc(ccc1-c1ccccc1)C(=O)N1CCCN(CC1)C(=O)CCl [compound 10]
Assay: probe-labelled cysteine peptide fold change vs DMSO (competition) (log2 fold change); higher = less target engagement (more negative = stronger competition)
Details: 50 µM; THP-1; incubation time: 4 h
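Further: competitive profiling in live THP-1 cells: cysteine peptides tagged with an iodoacetamide desthiobiotin (IA-DTB) probe, intensity after compound treatment relative to DMSO-treated cells.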

| Target | probe-labelled cysteine peptide fold change |
| --- | --- |
| PABPC1_P11940_132_VVCDENGSK (UniProt P11940) | -0.183 |
| PAIP1_Q9H074_358_IENVVLDANCSR (UniProt Q9H074) | 0.0612 |
| OSTC_Q9NRP0_14_VPFLVLECPNLK (UniProt Q9NRP0) | -0.0744 |
| ORC1_Q13415_506_LHVSAVPESLPCR (UniProt Q13415) | 0.102 |
| OSGEPL1_Q9H4B0_295_GQILSSAADIAATVQHTMACHLVK (UniProt Q9H4B0) | -0.49 |
| P2RX4_Q99571_132_SDASCTAGSAGTHSNGVSTGR (UniProt Q99571) | 0.0623 |
| PALD1_Q9ULE6_382_AITACAELHDLK (UniProt Q9ULE6) | -0.092 |
| PAICS_P22234_91+100_CGETAFIAPQCEMIPIEWVCR (UniProt P22234) | -0.167 |
| OSBP_P22059_517_SLCEQVSHHPPAAAHHAESK (UniProt P22059) | -0.00247 |
| PAFAH1B1_P43034_330_MWDVSTGMCLMTLVGHDNWVR (UniProt P43034) | 0.386 |
| PARN_O95453_205_NLDLEPCTGFQR (UniProt O95453) | 0.0943 |
| PADI2_Q9Y2J8_612+613_PFGPQVEEECCLEMHVR (UniProt Q9Y2J8) | -0.657 |
| PAFAH1B1_P43034_252_MVRPNQDGTLIASCSNDQTVR (UniProt P43034) | 0.125 |
| PAFAH1B3_Q15102_205_LGYTPVCR (UniProt Q15102) | 0.0983 |
| ORC3_Q9UBD5_639_LHLECSR (UniProt Q9UBD5) | 0.341 |
| ORC4_O43929_152_TSSCPVIFILDEFDLFAHHK (UniProt O43929) | 0.354 |
| PA2G4_Q9UQ80_149_AAHLCAEAALR (UniProt Q9UQ80) | 0.162 |
| OTUD4_Q01804_489_DEQAFPALSSSSVNQSASQSSNPCVQR (UniProt Q01804) | -0.124 |
| OSGEP_Q9NPF4_277_LQEMMATMCQER (UniProt Q9NPF4) | -0.0539 |
| P3H1_Q32P28_600_DDSHPVHVDNCILNAETLVCVK (UniProt Q32P28) | 0.277 |
| PARP12_Q9H0J9_85_AHQGSKPGCVGLCAQLHLCR (UniProt Q9H0J9) | 0.00259 |
| PARP1_P09874_845_IEREGECQR (UniProt P09874) | 0.000728 |

Some of the entries so far, as tab-separated lines.
Target	probe-labelled cysteine peptide fold change
PAFAH1B3_Q15102_205_LGYTPVCR (UniProt Q15102)	0.0983
ORC3_Q9UBD5_639_LHLECSR (UniProt Q9UBD5)	0.341
